# For at least one compound, name, drawing or mass did not settle the structure.
# Biological target: T1, recombinant guanylate cyclase reporter cell line (Rattus norvegicus, UniProt P19686+P20595)
# T1 construct: expressed in transfected cells; host or cells: recombinant reporter cell line
# T1 sequence (P19686 1-690): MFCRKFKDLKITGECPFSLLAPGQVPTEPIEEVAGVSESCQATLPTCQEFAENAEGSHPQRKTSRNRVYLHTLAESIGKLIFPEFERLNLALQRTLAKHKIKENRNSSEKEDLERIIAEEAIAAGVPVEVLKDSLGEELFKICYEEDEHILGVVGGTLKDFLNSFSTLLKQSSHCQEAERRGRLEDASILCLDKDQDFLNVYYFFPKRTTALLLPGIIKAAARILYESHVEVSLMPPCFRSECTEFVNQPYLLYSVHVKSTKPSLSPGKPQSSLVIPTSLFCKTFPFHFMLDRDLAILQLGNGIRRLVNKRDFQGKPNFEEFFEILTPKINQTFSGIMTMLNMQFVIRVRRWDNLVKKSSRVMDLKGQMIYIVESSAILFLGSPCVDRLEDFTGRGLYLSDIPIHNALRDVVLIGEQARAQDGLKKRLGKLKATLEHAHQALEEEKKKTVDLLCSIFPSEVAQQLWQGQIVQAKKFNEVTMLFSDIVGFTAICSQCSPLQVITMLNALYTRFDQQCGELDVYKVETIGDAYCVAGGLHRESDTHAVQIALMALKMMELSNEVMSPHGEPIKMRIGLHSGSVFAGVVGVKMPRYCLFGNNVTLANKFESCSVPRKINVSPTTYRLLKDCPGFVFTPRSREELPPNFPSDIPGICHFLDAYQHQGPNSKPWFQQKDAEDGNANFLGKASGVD
# T1 sequence (P20595 1-619): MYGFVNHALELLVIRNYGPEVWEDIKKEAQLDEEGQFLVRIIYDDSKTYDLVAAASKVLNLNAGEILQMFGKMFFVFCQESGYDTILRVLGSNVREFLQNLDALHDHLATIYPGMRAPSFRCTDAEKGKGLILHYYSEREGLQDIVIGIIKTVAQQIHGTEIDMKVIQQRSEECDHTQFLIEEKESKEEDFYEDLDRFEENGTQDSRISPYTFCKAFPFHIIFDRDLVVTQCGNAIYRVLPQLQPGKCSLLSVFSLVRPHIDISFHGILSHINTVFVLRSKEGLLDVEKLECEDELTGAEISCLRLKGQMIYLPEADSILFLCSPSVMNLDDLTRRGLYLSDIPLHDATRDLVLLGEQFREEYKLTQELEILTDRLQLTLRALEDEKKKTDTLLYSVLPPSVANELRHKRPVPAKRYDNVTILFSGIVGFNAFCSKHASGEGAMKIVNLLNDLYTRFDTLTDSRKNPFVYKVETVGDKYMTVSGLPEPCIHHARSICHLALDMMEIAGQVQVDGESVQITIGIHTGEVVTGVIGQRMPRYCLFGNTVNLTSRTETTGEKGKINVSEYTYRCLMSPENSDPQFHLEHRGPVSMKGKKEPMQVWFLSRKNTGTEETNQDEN
# Test: Action on recombinant guanylate cyclase reporter cell line
# Format: cell-based
# Settings: in some cases mean values from individual determinations
# Description: B-2. Action on Recombinant Guanylate Cyclase Reporter Cell Line
# The cellular action of the compounds according to the invention is determined on a recombinant guanylate cyclase reporter cell line, as described in F. Wunder et al., Anal. Biochem. 339, 104-112 (2005).
# Representative MEC values (MEC=minimal effective concentration) for the compounds according to the invention are shown in the following table (in some cases as mean values obtained from individual determinations): […]
row,SMILES,MEC (minimal effective concentration) [µM]
1,"Cc1nc2c(OCc3c(F)cccc3F)cccn2c1C(=O)NCC(N)c1ccc(F)c(F)c1 (stereo not drawn) [Example 62, ent-N-[2-Amino-2-(3,4-difluorophenyl)ethyl]-8-[(2,6-difluorobenzyl)oxy]-2-methylimidazo[1,2-a]-pyridine-3-carboxamide]",1.00
2,"Cc1nc2c(OCc3c(F)cccc3F)cccn2c1C(=O)NC(CN)CCCC(F)(F)F (racemic) [Example 4, rac-N-(1-amino-6,6,6-trifluorohexan-2-yl)-8-[(2,6-difluorobenzyl)oxy]-2-methylimidazo[1,2-a]pyridine-3-carboxamide]",0.30
3,"CCCC[C@H](CN1CCCCC1)NC(=O)c1c(C)nc2c(OCc3c(F)cccc3F)cccn12 [Example 65, ent-8-[(2,6-difluorobenzyl)oxy]-2-methyl-N-[(2R)-1-(piperidin-1-yl)hexan-2-yl]imidazo[1,2-a]-pyridine-3-carboxamide]",1.00

# Source: US20150274719A1, “AMINO-SUBSTITUTED IMIDAZO[1,2-A]PYRIDINECARBOXAMIDES AND THEIR USE” (BAYER PHARMA AKTIENGESELLSCHAFT, priority 2012, published 2015)
